Measured values taken from the supplement of paper PMC11006884.
This is a selection; strong and weak results do not stand in their true shares.

Amino acid sequences for entries named in this document (tags omitted). A change or cut given only in a name is not applied to a line headed by its entry.
UniProt Q9H4A4: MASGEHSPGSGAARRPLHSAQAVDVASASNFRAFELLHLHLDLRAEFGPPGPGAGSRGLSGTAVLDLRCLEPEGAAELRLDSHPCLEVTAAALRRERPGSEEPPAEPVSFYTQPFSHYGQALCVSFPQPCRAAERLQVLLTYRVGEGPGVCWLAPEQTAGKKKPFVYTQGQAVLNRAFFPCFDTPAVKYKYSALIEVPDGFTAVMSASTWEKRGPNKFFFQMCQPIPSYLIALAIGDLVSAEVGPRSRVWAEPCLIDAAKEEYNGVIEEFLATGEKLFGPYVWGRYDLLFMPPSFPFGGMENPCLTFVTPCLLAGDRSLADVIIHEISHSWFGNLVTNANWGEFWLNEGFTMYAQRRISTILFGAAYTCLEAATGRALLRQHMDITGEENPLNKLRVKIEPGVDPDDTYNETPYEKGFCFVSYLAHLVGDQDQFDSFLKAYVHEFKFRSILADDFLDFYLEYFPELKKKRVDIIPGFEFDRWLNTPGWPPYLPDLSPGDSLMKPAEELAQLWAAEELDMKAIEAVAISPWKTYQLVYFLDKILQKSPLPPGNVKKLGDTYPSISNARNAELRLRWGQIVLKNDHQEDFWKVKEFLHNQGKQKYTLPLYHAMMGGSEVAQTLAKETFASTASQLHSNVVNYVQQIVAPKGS
UniProt Q9NQ29: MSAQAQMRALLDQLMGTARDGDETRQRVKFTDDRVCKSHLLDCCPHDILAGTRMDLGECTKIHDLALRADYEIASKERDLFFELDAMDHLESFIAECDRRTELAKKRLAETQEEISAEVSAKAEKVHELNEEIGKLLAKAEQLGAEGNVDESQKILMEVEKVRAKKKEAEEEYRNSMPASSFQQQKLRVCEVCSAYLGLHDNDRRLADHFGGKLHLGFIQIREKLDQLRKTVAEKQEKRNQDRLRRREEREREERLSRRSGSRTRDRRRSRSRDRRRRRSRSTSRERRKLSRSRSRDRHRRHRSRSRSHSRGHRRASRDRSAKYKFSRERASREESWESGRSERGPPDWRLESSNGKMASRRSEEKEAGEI
UniProt Q9HC38: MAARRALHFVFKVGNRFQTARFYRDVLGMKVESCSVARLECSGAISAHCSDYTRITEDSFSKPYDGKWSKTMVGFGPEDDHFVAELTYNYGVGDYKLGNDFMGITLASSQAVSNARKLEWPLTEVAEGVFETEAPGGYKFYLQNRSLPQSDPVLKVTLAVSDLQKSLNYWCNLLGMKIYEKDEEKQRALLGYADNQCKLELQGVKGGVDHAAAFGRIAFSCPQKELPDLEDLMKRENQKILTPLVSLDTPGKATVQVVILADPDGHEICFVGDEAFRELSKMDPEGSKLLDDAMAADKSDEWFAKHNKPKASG
UniProt Q9H892: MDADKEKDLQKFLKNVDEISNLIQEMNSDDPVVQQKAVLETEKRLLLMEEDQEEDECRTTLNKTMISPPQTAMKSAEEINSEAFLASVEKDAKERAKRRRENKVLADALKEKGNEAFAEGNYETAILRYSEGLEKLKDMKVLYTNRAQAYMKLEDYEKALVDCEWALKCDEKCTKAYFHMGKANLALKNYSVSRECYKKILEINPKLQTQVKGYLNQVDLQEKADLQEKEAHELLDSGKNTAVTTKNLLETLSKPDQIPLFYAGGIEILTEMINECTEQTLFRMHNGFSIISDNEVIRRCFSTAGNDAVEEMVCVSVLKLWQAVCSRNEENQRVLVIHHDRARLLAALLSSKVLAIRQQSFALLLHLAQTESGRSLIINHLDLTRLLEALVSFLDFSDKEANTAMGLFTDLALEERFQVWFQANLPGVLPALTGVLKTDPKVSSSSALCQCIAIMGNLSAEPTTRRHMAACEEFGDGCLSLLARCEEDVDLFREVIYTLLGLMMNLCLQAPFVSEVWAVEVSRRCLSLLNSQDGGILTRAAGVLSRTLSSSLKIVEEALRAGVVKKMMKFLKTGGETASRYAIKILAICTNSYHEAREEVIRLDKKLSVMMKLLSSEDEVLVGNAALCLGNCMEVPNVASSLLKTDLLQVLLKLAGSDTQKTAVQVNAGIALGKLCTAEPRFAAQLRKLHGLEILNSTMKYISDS
UniProt Q9NPF0: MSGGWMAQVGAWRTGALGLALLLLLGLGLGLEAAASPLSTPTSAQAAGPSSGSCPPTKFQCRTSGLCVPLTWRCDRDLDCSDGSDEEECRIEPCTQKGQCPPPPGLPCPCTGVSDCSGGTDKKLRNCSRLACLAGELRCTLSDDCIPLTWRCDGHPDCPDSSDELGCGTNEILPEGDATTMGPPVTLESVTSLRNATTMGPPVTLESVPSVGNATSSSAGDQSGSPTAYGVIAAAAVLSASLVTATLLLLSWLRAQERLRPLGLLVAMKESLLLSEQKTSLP
UniProt Q9NRP0: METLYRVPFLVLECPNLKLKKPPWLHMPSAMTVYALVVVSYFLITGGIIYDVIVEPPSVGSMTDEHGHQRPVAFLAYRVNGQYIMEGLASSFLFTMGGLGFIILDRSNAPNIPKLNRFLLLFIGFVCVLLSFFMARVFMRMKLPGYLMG
UniProt Q9NP61: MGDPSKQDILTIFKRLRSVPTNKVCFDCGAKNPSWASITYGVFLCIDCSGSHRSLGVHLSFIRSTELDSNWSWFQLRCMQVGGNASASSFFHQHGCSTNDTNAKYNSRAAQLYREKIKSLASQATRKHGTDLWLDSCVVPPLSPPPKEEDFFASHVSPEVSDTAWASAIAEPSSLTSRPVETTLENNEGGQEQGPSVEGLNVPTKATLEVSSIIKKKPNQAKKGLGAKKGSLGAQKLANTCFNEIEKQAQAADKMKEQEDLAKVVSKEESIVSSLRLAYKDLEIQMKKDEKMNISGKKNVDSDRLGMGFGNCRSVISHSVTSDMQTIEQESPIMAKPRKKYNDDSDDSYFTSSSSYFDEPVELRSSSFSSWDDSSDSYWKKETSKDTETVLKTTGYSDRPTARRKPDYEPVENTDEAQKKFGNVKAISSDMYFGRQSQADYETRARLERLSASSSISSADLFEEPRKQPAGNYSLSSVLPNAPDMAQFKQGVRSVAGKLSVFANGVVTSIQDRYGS
UniProt Q9NS87: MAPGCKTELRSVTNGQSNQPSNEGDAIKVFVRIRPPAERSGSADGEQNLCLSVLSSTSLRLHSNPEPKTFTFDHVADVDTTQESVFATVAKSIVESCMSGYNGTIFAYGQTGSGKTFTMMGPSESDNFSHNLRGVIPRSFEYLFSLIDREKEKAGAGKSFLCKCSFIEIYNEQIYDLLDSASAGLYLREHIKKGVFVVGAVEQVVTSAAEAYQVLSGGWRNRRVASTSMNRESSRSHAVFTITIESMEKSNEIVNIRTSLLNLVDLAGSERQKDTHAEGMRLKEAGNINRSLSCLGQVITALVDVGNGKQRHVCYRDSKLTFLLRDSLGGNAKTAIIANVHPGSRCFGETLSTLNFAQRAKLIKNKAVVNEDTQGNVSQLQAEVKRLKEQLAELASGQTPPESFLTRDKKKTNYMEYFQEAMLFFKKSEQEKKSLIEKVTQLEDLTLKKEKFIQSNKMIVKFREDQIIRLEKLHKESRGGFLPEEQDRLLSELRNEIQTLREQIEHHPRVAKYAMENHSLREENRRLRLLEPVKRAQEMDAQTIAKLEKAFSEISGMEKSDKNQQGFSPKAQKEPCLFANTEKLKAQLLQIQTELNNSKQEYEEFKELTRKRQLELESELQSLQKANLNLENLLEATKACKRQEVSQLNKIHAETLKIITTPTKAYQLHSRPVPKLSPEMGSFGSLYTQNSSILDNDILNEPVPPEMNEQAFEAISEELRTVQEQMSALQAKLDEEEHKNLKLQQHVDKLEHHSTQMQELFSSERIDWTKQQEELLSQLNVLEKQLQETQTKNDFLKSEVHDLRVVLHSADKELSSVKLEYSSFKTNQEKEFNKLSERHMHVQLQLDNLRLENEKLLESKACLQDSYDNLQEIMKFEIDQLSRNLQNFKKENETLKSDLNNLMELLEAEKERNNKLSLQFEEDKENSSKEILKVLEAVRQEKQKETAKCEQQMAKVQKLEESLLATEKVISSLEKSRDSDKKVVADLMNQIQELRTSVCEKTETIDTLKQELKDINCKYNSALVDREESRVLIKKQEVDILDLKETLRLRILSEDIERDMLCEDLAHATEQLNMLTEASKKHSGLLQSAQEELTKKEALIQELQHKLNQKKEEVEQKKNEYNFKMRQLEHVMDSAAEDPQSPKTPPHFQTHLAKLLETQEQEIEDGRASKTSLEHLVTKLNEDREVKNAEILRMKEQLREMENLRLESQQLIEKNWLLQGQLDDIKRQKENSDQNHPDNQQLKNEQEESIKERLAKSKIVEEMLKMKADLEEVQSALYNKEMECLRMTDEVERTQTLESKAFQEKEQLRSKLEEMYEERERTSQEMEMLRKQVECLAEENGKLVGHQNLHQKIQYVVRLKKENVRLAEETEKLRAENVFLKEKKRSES
UniProt Q9H4H8: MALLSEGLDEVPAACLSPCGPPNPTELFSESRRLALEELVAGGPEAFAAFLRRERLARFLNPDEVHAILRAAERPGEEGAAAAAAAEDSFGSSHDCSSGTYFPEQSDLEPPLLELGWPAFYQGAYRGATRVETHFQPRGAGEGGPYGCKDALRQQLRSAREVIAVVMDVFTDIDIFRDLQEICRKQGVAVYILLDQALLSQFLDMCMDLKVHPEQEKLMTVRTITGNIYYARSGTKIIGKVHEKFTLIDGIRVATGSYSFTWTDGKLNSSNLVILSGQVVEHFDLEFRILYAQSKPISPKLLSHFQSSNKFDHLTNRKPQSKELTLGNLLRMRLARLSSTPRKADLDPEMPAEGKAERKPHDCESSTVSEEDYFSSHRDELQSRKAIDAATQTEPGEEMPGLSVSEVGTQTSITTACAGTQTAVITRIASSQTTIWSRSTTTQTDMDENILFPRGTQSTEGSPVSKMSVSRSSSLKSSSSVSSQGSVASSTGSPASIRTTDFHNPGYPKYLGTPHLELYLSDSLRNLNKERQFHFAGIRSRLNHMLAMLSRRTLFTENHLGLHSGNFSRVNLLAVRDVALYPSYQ
UniProt Q9NRM2: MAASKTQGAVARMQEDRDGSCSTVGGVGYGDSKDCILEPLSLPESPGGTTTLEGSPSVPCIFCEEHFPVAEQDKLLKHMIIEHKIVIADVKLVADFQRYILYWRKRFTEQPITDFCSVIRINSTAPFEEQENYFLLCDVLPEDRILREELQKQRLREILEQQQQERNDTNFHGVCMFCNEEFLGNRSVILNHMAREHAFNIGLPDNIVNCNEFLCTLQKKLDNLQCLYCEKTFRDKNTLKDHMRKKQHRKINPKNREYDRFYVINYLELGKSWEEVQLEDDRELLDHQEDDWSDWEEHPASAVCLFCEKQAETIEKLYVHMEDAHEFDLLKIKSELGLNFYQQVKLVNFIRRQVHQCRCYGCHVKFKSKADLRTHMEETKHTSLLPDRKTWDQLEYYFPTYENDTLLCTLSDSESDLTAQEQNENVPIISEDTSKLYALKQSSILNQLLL
UniProt Q9NP80: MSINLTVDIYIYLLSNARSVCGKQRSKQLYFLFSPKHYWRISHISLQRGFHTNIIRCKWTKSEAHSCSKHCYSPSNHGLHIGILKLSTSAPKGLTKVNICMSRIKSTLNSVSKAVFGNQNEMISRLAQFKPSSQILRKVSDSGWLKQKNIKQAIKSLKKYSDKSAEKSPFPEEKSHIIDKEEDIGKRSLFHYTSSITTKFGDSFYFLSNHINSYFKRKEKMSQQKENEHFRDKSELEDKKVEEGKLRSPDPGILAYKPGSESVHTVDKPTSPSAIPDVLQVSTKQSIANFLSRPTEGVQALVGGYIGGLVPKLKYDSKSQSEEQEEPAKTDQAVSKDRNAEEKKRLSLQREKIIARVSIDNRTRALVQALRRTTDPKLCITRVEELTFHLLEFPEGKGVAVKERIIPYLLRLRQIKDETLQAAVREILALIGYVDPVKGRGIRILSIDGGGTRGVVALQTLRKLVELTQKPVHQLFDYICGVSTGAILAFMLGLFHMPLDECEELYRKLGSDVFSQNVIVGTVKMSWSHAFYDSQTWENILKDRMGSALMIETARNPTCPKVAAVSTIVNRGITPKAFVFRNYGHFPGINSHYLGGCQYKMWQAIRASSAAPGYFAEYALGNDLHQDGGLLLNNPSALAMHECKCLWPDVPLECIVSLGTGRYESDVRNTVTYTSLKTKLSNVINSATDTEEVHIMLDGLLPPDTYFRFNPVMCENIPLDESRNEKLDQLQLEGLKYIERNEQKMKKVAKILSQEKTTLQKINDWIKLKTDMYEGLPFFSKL

Each target was assayed with COC(=O)C#Cc1ccccc1 [methyl 3-phenylpropiolate] (assay: log2 ratio of iodoacetamide-alkyne labeling of the cysteine site, DMSO over compound (competition); higher = stronger covalent engagement of the cysteine by the compound, active = 1 or more). Settings: 500 µM; treatment time 1 h; system: HEK293T cell lysate.
How it was run: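 Three replicates, each with duplicate channels, were prepared from HEK293T lysate (2 mg/mL) treated with vehicle or electrophile at 500 µM for 1 h at ambient temperature. Iodoacetamide alkyne was then applied for 1 h, and samples were clicked to sCIP-TMT reagents, pooled, trypsin-digested overnight at 37 °C, enriched on streptavidin, acid-eluted and analysed on Orbitrap Eclipse LC-MS/MS with FAIMS, with FragPipe quantification. The log2 competition ratio per cysteine is the mean control-channel divided by the mean compound-channel reporter intensity. Cysteines quantified in only one replicate were left out.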

Target	log2 ratio of iodoacetamide-alkyne labeling
RNPEP C254 (UniProt Q9H4A4)	inactive: -0.0735
LUC7L C97 (UniProt Q9NQ29)	inactive: 0.36
MDN1 C4259 (UniProt Q9NU22)	inactive: -0.182
GLOD4 C269 (UniProt Q9HC38)	inactive: -0.142
TTC12 C525 (UniProt Q9H892)	inactive: 0.76
CD320 C67 (UniProt Q9NPF0)	inactive: 0.843
OSTC C14 (UniProt Q9NRP0)	inactive: 0.193
ARFGAP3 C312 (UniProt Q9NP61)	inactive: 0.763
LUC7L C59 (UniProt Q9NQ29)	inactive: 0.0632
CHD8 C1161 (UniProt Q9HCK8)	inactive: 0.0972
KIF15 C862 (UniProt Q9NS87)	inactive: 0.141
FARSB C418 (UniProt Q9NSD9)	inactive: -0.182
FAM83D C15 (UniProt Q9H4H8)	active: 1.11
ZNF277 C215 (UniProt Q9NRM2)	inactive: 0.0405
PNPLA8 C714 (UniProt Q9NP80)	inactive: 0.283

2 neighbouring entries already listed, quoted:
Target	log2 ratio of iodoacetamide-alkyne labeling
KIF15 C862 (UniProt Q9NS87)	inactive: 0.141
FARSB C418 (UniProt Q9NSD9)	inactive: -0.182
